{"source": "PubChem BioAssay AID504774 (Drosophila RNAi Screening Center, 2011)", "aim": "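Fly genes whose loss alters survival after alkylation damage to DNA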 (primary screen)", "system": "Drosophila Kc167 cells", "reagents": "long dsRNA against Drosophila genes, about 0.25 µg dsRNA per well", "timing": "about 6 days: 3 days knock-down, then 3 days with or without MMS", "treatment": "methyl methanesulphonate 0.004% (w/v) for 3 days after knock-down", "read-out": "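Viability in wells given MMS, read as ATP luminescence, normalised by quantiles plate by plate and averaged across replicates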", "direction": "mean viability with MMS: higher = more surviving cells after MMS", "note": "The deposit covers about 23,000 reagents; below is an unselected part of those that have a named target and a result. 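Values are quantile-normalised luminescence on an arbitrary scale; higher means more cells surviving MMS.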 Reagents against one gene are numbered here. Names joined by + are all predicted targets of the reagent. Further read-outs or replicates are left out here."}
{"Target gene": "CG14445", "reagent": 1, "mean viability with MMS": 3.45e6}
{"Target gene": "7B2", "reagent": 1, "mean viability with MMS": 3.68e6}
{"Target gene": "smp-30 (Senescence marker protein-30)", "reagent": 1, "mean viability with MMS": 3.62e6}
{"Target gene": "TpnC73F (Troponin C at 73F)", "reagent": 1, "mean viability with MMS": 3.44e6}
{"Target gene": "CG31871", "reagent": 1, "mean viability with MMS": 3.34e6}
{"Target gene": "CG31871", "reagent": 2, "mean viability with MMS": 3.31e6}
{"Target gene": "CG30116", "reagent": 1, "mean viability with MMS": 3.59e6}
{"Target gene": "CG30116", "reagent": 2, "mean viability with MMS": 3.61e6}
{"Target gene": "Noa36", "reagent": 1, "mean viability with MMS": 3.58e6}
{"Target gene": "CG9521", "reagent": 1, "mean viability with MMS": 3.48e6}
{"Target gene": "CG12546 + CG14452", "reagent": 1, "mean viability with MMS": 3.40e6}
{"Target gene": "hig (hikaru genki)", "reagent": 1, "mean viability with MMS": 3.34e6}
{"Target gene": "hig (hikaru genki)", "reagent": 2, "mean viability with MMS": 3.51e6}
{"Target gene": "hig (hikaru genki)", "reagent": 3, "mean viability with MMS": 3.57e6}
{"Target gene": "CG31211", "reagent": 1, "mean viability with MMS": 3.50e6}
{"Target gene": "CG31211", "reagent": 2, "mean viability with MMS": 3.54e6}
{"Target gene": "CG31211", "reagent": 3, "mean viability with MMS": 3.69e6}
{"Target gene": "CG8237", "reagent": 1, "mean viability with MMS": 3.40e6}
{"Target gene": "IPIP (Inositol phosphatase interacting protein)", "reagent": 1, "mean viability with MMS": 3.89e6}
{"Target gene": "CG5250", "reagent": 1, "mean viability with MMS": 3.53e6}
{"Target gene": "CG16888", "reagent": 1, "mean viability with MMS": 3.56e6}
{"Target gene": "alphaKap4 (alpha Karyopherin-4)", "reagent": 1, "mean viability with MMS": 3.41e6}
{"Target gene": "cerv (cervantes)", "reagent": 1, "mean viability with MMS": 3.52e6}
{"Target gene": "Nnf1a", "reagent": 1, "mean viability with MMS": 3.54e6}

Entries listed so far whose gene name begins with H or h:
{"Target gene": "hig (hikaru genki)", "reagent": 1, "mean viability with MMS": 3.34e6}
{"Target gene": "hig (hikaru genki)", "reagent": 2, "mean viability with MMS": 3.51e6}
{"Target gene": "hig (hikaru genki)", "reagent": 3, "mean viability with MMS": 3.57e6}
